Test results as given in PubChem BioAssay AID1347426 (Functional Genomics Laboratory (NCATS/FGL), 2020).
Out of some 31,000 sequences screened, about 1,400 (4.5%) were called active.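 How the source made its calls: active means median seed-adjusted z-score above 1 or below -1; inactive means the rest.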 The list shows a part of the results.

Test: Novel Modifiers of Survival Motor Neuron (SMN) Protein: Gene Identification via Genome-wide siRNA Screen;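 further: luminescence tracks full-length SMN protein made from the SMN2 reporter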
Settings: HEK293T SMN2-luciferase reporter, siRNA knockdown, 72 h; actives lie on both sides
Outline: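 HEK293T cells stably expressing an SMN2 splicing/cDNA-luciferase reporter were reverse-transfected with a druggable-genome siRNA library and read by luminescence at 72 hours; hits defined by MAD score above 1.0 or below -1.0.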
With UGGUCAACGUGGACAUGAATT against PLCD3 the median seed-adjusted z-score was inactive: 0.228.
With CAGUGAAACUAAGUAAUAUTT against GSTA4 the median seed-adjusted z-score was inactive: -0.848.
In the case of GAAGGGCCGUAUUGAGUUUTT against ABCB6, the median seed-adjusted z-score is reported as inactive: -0.359.
With CCUAGGAGUUUGCUACAUATT against BBS4 the median seed-adjusted z-score was inactive: -0.0339.
For GAAUUAUGUCAGCAACGUATT against FER, the median seed-adjusted z-score was inactive: 0.
For CGCCAGACGUUUUCCAUCATT against AZU1, the median seed-adjusted z-score was inactive: 0.349.
In the case of GAAUCCACCCAGAUUUACATT against NEK4, the median seed-adjusted z-score is reported as inactive: -0.076.
In the case of GGACCUUAUUCACCAGUUATT against PLK4, the median seed-adjusted z-score is reported as inactive: -0.0888.
In the case of GGAUAUAACCAGUUUCCUUTT against CYP2U1, the median seed-adjusted z-score is reported as inactive: 0.144.
For GGACUUAUCUGAGUAUAGUTT against ITGA3, the median seed-adjusted z-score was inactive: 0.
For GGUGUCGGAUGAUUUAUCATT against MYRIP, the median seed-adjusted z-score was inactive: 0.141.
In the case of GGAUUCGAGUCAUCAAGAATT against CPXM1, the median seed-adjusted z-score is reported as inactive: 0.147.
In the case of GGAUCUACCUGAAUAACAATT against MSRB2, the median seed-adjusted z-score is reported as inactive: 0.373.
With GGAACGUGCUCAUCUGUGATT against PDGFRB the median seed-adjusted z-score was inactive: -0.709.
For AGGUACUUCUACUCCCGAATT against LGALS3BP, the median seed-adjusted z-score was inactive: 0.187.
For CCUUGUCUUUGGGUAAUCATT against GPR128, the median seed-adjusted z-score was inactive: -0.208.
In the case of GCUGCUACAUGGUAUUACUTT against TG, the median seed-adjusted z-score is reported as inactive: 0.0137.
With CAGGAUCUACGAUAAGGUATT against ACSL5 the median seed-adjusted z-score was inactive: 0.109.
With ACCCUGCCCACAUAUCUUATT against PRSS22 the median seed-adjusted z-score was inactive: -0.565.
For CCUCAAGAGAUGAUUGAUATT against B3GNT2, the median seed-adjusted z-score was inactive: -0.0427.
In the case of CGAUGACCAUCGACUGGAATT against SLC25A25, the median seed-adjusted z-score is reported as inactive: -0.668.
For GGGCCCUAGUGAACUGUCATT against EXOSC4, the median seed-adjusted z-score was inactive: 0.443.
In the case of GAUCGAAUCUUUAAGGUCUTT against EIF2C1, the median seed-adjusted z-score is reported as inactive: 0.215.
For GCACAACUGUAGAGACAGATT against CIDEC, the median seed-adjusted z-score was inactive: 0.189.
In the case of GGCUAUGUGGUGAACCUUUTT against SORL1, the median seed-adjusted z-score is reported as inactive: 0.357.
In the case of GCCUCUCAGGGAAAGAGUATT against SEMA4F, the median seed-adjusted z-score is reported as inactive: 0.139.
For CCAACUUGAUUAUGAUGUUTT against ZFP91, the median seed-adjusted z-score was inactive: 0.0597.
With GGAAGAUCACAUUAGUAAATT against GKAP1 the median seed-adjusted z-score was inactive: -0.119.
For GCUCCUUAUUGAACAGUUUTT against SLC16A12, the median seed-adjusted z-score was inactive: 0.0219.
For CCUUAGAAAGUUUCAAUUATT against TADA2L, the median seed-adjusted z-score was inactive: 0.0455.
In the case of UCUUAUCCUUUGUCGCAGATT against LMO3, the median seed-adjusted z-score is reported as inactive: 0.496.
For GCCGGAGUGUUGAAUUAGATT against PLCL2, the median seed-adjusted z-score was inactive: 0.393.
With GGAUAUUGCAGAUAAUCCATT against STYX the median seed-adjusted z-score was inactive: 0.694.
In the case of GGCUUGUAGGUGGAACUAATT against CD163L1, the median seed-adjusted z-score is reported as inactive: 0.353.
In the case of GCUCUGUACAGGAAACUCUTT against IL2RA, the median seed-adjusted z-score is reported as inactive: 0.587.
For CUACCGCAUCAGUAACAGATT against DDX21, the median seed-adjusted z-score was inactive: -0.251.
With GCAUUCUGUUAGACAGUGATT against ST8SIA4 the median seed-adjusted z-score was inactive: -0.309.
With GCAUCGUGAUGGUGACACUTT against DPEP3 the median seed-adjusted z-score was inactive: 0.95.
In the case of CCGUCACCCUUAUCAGCAATT against PTPRG, the median seed-adjusted z-score is reported as inactive: 0.0697.
With CCUGGAUACCCUAAGCAAATT against PSMD2 the median seed-adjusted z-score was active: -1.44.
For CAAGCUCUGCGGAAAUCAATT against SPSB2, the median seed-adjusted z-score was inactive: -0.741.
With CCCUACAUAGGAAACCUGUTT against PKD1L2 the median seed-adjusted z-score was active: -1.17.
With ACAGGAUACCCAACUUUAATT against MTHFSD the median seed-adjusted z-score was inactive: -0.298.
With GAAGGGCCUUUUUAUCCAATT against MCTS1 the median seed-adjusted z-score was inactive: 0.116.
With CCUGCUAGCUGAGAACGAATT against RPUSD2 the median seed-adjusted z-score was inactive: -0.215.
For GGAUAGCGACUAUAAUCCATT against ZNF335, the median seed-adjusted z-score was inactive: -0.305.
In the case of CGACCGUCCUGAAUUCUAATT against BAI1, the median seed-adjusted z-score is reported as inactive: -0.663.
For GCUCAUCCCUGUGCAUGGUTT against LY6G5B, the median seed-adjusted z-score was active: -1.29.
For CGUUCACCUUCAUGAGGGATT against OBP2B, the median seed-adjusted z-score was inactive: -0.642.
In the case of CUACCUCCUGAAUAUGAUATT against ZNF567, the median seed-adjusted z-score is reported as inactive: -0.114.
In the case of CAUCAGUGGUUGGAGACCATT against RNF185, the median seed-adjusted z-score is reported as inactive: -0.388.
For AGUUCUCAGCGAAAAAGAATT against CETN2, the median seed-adjusted z-score was inactive: -0.0139.
With GCAUAACUGUAACAGAGAATT against RPP30 the median seed-adjusted z-score was inactive: -0.656.
With GGGUUGAAACCUUAUGAAUTT against ZNF33B the median seed-adjusted z-score was inactive: -0.279.
With CCGAGGCAAUGAUUCGUGUTT against CASD1 the median seed-adjusted z-score was inactive: 0.202.
For GCGGCAGAGUCAAAUACAATT against GATAD2A, the median seed-adjusted z-score was inactive: -0.715.
In the case of GAGCUGACCCGAAACAAGATT against CLP1, the median seed-adjusted z-score is reported as inactive: -0.372.
For GCCCAAGUGUGAAGACUGUTT against SIRT2, the median seed-adjusted z-score was inactive: 0.727.
In the case of AGGCGGUGCUUGUUCCUCATT against TNF, the median seed-adjusted z-score is reported as inactive: -0.138.
With CAUCUGAACUCGAUGGAGATT against PTH the median seed-adjusted z-score was inactive: 0.
In the case of GAAGAAUACAAACAGCAAUTT against CRCP, the median seed-adjusted z-score is reported as inactive: 0.
In the case of CGGAGGUGACUGACAGAUATT against CAMKV, the median seed-adjusted z-score is reported as inactive: -0.193.
With ACAUAACCGUUCUUCGAGATT against GTPBP2 the median seed-adjusted z-score was inactive: -0.166.
With UCUUCUCUGUUAUCAAUAUTT against APH1A the median seed-adjusted z-score was inactive: 0.741.
With GGAUCAUGCUGAGAUGCAATT against RASAL2 the median seed-adjusted z-score was inactive: 0.
For CAGAGUGGUUUGUUACAGATT against TXNRD3, the median seed-adjusted z-score was inactive: 0.69.
With GCAGACCUAUCACAAGUUUTT against GLUD1 the median seed-adjusted z-score was inactive: 0.156.
In the case of GUAGUUUCUUUAGAGAAUATT against ATP7A, the median seed-adjusted z-score is reported as inactive: 0.
For CAUCGAUAUUAGCAAAGGATT against ACE2, the median seed-adjusted z-score was inactive: -0.164.
